The list does not hold the whole screen: it gathers tests that were run many times, whatever their T/C, doses with no T/C, and many T/C values between a quarter and a half above the control. Further doses and runs are listed elsewhere. T/C gives the treated animals as a percentage of the vehicle group. Some entries give survivors of the animals treated and no T/C: the source files T/C as zero there, which appears to mark a toxic dose or a test without result, not a measured value. Some doses without a T/C left all or most animals alive at the check, yet need not have been tolerated: the source hardly ever lists a survival T/C far under the control, and the zero likely stands for such cases as well. Survivors were counted at the toxicity check, usually on the fifth day, unless a day is given; later deaths do not show. Schedules are NCI's codes, read here as Q, the interval in days (D) or hours (H), X, the number of doses.
Test system: L1210 leukemia ip in BDF1 mice, survival T/C
Experiment: NCI In Vivo Anticancer Drug Screen. Data for tumor model L1210 Leukemia (intraperitoneal) in B6D2F1 (BDF1) mice
Settings: T/C endpoint: mean survival time, schedule: Q01DX009 (ip), vehicle: saline with Tween-80, higher T/C = longer survival

Structure (SMILES): O=C(O)c1c(Cl)cccc1Cl
- survivor count (dose: 200.0 mg/kg/injection): 6 of 6
- survivor count (dose: 400.0 mg/kg/injection): 1 of 6

— PubChem BioAssay AID248 (DTP/NCI, 2004)
